According to article doi:10.1101/2021.03.12.435139:
For at least one entry, the source does not settle the construct or the ends of the probe. Negatives hold for the conditions tested. Protein sequences can lack the tags named with them.

Molecular target: T1, PPR domain of POLRMT (Drosophila melanogaster) (UniProt Q9VPW4)
T1 sequence (looked up): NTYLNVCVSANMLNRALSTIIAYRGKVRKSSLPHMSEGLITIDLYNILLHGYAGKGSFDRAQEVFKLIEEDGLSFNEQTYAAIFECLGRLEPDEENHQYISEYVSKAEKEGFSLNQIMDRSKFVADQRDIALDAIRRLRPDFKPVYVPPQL
Experiment: EMSA
Conditions: 50 nM probe, 0-1 µM PPR; residues 314-464

GTAAAATACTTTATATATAGAGCTTAAATC (double strand) [dsDNA EMSA probe]
binding result: no binding
